Source: publication doi:10.1101/2024.08.01.605889

Amino acid sequences for entries named in this document (tags omitted).
UniProt P14635: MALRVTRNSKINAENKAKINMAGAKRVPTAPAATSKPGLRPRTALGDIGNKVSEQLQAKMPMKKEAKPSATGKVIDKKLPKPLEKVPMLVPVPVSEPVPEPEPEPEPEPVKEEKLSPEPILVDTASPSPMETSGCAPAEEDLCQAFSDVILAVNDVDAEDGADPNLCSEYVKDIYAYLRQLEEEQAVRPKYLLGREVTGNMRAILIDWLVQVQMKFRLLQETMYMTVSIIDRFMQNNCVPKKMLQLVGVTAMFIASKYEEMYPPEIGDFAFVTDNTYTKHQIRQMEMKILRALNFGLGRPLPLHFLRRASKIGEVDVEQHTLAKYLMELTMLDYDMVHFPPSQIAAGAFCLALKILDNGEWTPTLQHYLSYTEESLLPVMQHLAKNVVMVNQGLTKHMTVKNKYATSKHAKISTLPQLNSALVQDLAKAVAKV
UniProt P46527: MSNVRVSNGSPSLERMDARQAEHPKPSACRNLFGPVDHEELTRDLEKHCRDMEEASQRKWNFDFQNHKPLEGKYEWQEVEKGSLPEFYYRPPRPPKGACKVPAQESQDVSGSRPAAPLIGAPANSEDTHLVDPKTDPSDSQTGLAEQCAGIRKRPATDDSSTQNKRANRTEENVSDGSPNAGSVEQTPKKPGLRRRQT

Biological target: cyclin B1 (human (endogenous in NCI-H1048 and NCI-H446)) (UniProt P14635)
Assay: affinity purification with mass spectrometry

binding: binds
Substance: p27^Kip1 (from UniProt P46527 1-198)

Results are given in words; binding and its absence hold for the method and conditions named. Binding seen in cells or lysates may run through a third protein. These calls come from enrichment with a bait or labelling near it, and not all partners need be listed.
